Measurements reported in article PMC10256812.
Positions count from the first letter of the chain named. These are yes or no findings as the source states them, for the method shown. Binding seen in cells or lysates may run through a third protein. Some results given as binding are weak or reduced against the parent protein; the word gives no strength. For part of these data: Tags and fused reporters may be left off the sequences shown.

The chains behind the UniProt entries cited, without tags or fusion partners.
UniProt P10275: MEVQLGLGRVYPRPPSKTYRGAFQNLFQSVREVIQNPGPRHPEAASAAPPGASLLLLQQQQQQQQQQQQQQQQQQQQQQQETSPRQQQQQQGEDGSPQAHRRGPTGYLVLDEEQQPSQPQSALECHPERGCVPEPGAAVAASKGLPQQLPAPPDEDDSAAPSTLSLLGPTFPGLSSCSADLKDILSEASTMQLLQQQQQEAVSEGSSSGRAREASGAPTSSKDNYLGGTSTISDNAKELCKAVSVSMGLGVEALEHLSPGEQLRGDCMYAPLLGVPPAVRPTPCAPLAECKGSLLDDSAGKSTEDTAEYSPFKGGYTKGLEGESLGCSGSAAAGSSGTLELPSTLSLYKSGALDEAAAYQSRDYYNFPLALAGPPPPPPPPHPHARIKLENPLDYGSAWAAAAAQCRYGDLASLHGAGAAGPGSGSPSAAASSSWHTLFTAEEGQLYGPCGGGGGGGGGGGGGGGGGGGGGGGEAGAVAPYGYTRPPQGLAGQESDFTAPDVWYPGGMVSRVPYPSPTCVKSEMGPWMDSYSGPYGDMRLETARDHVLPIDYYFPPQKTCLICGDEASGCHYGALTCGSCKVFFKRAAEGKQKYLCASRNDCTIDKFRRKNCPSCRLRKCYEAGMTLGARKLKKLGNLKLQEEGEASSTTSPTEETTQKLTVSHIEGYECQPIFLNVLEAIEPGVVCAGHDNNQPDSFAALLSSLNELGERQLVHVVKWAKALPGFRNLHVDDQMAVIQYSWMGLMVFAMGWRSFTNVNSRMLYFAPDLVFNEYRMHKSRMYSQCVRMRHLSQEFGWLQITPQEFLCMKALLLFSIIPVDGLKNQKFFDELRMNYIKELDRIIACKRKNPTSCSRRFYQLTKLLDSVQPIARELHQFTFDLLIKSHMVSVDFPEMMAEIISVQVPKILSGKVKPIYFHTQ
UniProt Q92830: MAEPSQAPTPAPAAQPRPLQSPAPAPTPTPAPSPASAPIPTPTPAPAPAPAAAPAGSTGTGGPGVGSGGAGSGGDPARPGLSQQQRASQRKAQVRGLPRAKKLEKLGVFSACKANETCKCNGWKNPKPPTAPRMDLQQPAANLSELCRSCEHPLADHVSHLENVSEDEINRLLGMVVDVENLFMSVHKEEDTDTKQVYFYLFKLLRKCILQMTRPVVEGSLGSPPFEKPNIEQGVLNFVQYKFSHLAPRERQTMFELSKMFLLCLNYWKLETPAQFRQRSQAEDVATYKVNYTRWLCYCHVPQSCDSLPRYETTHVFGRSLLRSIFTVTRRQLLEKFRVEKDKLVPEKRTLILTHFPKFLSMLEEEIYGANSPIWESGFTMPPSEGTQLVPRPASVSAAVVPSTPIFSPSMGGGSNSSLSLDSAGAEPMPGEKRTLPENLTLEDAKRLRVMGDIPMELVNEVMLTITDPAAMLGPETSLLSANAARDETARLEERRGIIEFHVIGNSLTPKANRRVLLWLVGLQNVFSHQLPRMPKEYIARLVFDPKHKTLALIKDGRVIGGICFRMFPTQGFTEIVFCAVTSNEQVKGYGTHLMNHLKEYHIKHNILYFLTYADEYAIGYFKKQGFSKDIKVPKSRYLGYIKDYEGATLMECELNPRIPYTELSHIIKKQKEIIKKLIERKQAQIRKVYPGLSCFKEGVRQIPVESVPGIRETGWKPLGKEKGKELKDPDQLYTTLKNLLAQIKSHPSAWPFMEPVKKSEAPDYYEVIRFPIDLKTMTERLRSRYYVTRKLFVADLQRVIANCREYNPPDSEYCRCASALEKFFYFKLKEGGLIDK

Key:
[1] = molecular target: T1, His-tagged SREBF1 Y673/951A double mutant, expressed in HEK293T cells (UniProt P36956); assay: co-IP; HEK293T cells transfected with FLAG-tagged AR and His-tagged SREBF1 or Y673/951A, DHT treatment; lysates precipitated with Ni-NTA beads (His), immunoblot with FLAG antibody
T1 sequence: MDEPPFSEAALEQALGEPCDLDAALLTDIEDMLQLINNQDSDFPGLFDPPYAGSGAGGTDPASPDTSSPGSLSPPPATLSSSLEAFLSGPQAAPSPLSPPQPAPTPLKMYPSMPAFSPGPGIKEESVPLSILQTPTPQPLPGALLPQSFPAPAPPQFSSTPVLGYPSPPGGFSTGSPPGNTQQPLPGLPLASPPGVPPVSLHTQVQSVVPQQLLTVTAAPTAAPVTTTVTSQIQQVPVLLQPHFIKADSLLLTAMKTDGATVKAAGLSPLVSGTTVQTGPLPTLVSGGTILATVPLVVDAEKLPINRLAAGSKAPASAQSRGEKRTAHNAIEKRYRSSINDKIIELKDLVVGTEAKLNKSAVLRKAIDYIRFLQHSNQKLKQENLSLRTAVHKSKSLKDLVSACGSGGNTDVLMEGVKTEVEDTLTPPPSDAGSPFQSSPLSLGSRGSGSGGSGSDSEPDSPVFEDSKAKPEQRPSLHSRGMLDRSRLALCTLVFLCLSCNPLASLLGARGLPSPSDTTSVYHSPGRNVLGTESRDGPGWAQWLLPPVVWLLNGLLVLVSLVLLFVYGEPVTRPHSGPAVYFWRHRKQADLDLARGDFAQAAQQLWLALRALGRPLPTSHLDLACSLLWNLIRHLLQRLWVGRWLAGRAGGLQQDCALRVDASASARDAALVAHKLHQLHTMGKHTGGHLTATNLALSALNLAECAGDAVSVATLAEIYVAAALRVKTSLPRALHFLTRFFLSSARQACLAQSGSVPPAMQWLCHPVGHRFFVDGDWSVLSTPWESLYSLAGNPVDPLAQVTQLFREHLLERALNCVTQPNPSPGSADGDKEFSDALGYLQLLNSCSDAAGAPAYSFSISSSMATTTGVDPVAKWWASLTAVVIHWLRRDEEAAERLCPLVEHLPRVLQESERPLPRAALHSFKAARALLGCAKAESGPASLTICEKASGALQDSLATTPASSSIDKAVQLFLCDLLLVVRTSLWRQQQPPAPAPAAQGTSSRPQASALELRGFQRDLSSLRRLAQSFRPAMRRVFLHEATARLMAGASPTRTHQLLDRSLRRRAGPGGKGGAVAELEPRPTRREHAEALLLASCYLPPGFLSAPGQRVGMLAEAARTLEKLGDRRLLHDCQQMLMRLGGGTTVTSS

[2] = molecular target: T2, HA-tagged SREBF1 (wild type), expressed in C4-2B cells (UniProt P36956); assay: co-IP; C4-2B cells infected with HA-tagged SREBF1 or Y673/951A constructs, in the presence of abiraterone; lysates immunoprecipitated with anti-HA affinity gel, immunoblot with KAT2A antibody
T2 sequence: T1 sequence with A673Y, A951Y

[3] = molecular target: T3, sterol regulatory element-binding protein 1 (SREBF1), endogenous (human (endogenous in C4-2B, LAPC4, VCaP, HEK293T)) (UniProt P36956); assay: co-IP; C4-2B and LAPC4 cells treated with abiraterone (7.5 uM); lysates (RLB: 20 mM HEPES pH 7.5, 500 mM NaCl, 1% Triton X-100) immunoprecipitated with SREBF1 antibody, immunoblot with KAT2A antibody; both endogenous
T3 sequence: T1 sequence with A673Y, A951Y

Substance | binding [1] | binding [2] | binding [3]
FLAG-tagged androgen receptor (AR) (from UniProt P10275 1-920) | binds | – | –
KAT2A/GCN5, endogenous (from UniProt Q92830 1-837) (enzyme) | – | binds | binds
